Reference: PubChem BioAssay AID1259425 (University of Nebraska Medical Center, 2018)
The whole screen tested about 14,000 reagents; shown is a part drawn at random. The record does not give: the time to read-out.

- Aim: 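Compare each knockdown with KSR1 silencing using changes in marker transcripts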 (primary screen)
- Cells: HCT116 human colon cancer cells
- Reagents: siRNA pool against human genes, 50 nM siRNA
- Measured: 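mRNA of six signature genes measured together by branched-DNA assay after 50 nM siRNA pool, blank removed, divided by geometric mean of two housekeeping genes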
- Direction: BNIP3L mRNA: higher = more BNIP3L transcript after knockdown; NDRG1 mRNA: higher = more NDRG1 transcript after knockdown; BNIP3 mRNA: higher = more BNIP3 transcript after knockdown; ALDOC mRNA: higher = more ALDOC transcript after knockdown; ACSL5 mRNA: higher = more ACSL5 transcript after knockdown

gene,"BNIP3L mRNA, set 1","NDRG1 mRNA, set 1","BNIP3 mRNA, set 1","ALDOC mRNA, set 1","ACSL5 mRNA, set 1"
MON2,0.114,0.0852,0.323,0.0284,0.0617
FIRRM,0.163,0.787,0.44,0.038,0.217
TLR6,0.155,0.498,0.574,0.0215,0.353
STK17B,0.0411,0.0767,0.243,0.00479,0.163
TOX2,0.178,0.26,0.416,0.0502,0.347
MYEF2,0.0983,0.207,0.4,0.0302,0.455
TOR4A,0.0758,0.269,0.352,0.0826,0.143
RPP21,0.196,0.274,0.225,0.0443,0.0875
MAGED4B,0.117,0.173,0.3,0.00981,0.126
PURA,0.0881,0.117,0.234,0.00912,0.182
SLAMF1,0.0778,0.254,0.265,0.0215,0.128
USP53,0.0614,0.143,0.167,0.0327,0.103
CREBBP,0.153,0.138,0.325,0.0387,0.138
SC5D,0.15,0.609,0.518,0.0189,0.314
BUB1,0.0887,0.409,0.368,0.00372,0.229
MAST1,0.234,0.225,0.772,0.0189,0.136
FOXA1,0.0596,0.253,0.129,0.00771,0.197
MYL1,0.0928,0.461,0.144,0.028,0.375
IL10RB,0.0936,0.186,0.262,0.0599,0.059
TRAPPC14,0.179,0.206,0.327,0.0386,0.35
NDUFS6,0.0794,0.196,0.324,0.0115,0.315
SEPTIN4,0.11,0.724,0.407,0.0412,0.332
CCDC54,0.118,0.137,0.303,0.0406,0.161
RNF111,0.137,0.122,0.376,0.0298,0.164
SLC28A1,0.131,0.0519,0.273,0.0331,0.314
SH3GL3,0.349,1.31,0.613,0.0115,0.431
PDXDC1,0.0393,0.453,0.374,0.0211,0.181
HCAR2,0.124,0.326,0.188,0.0338,0.172
ANTKMT,0.114,0.0965,0.271,0.0209,0.169
VPS9D1,0.289,1.1,0.251,0.0127,0.162
ANP32CP,0.115,0.0746,0.165,0.0223,0.0993
ITGB4,0.0464,0.361,0.176,0.015,0.173
ANKRD50,0.143,0.189,0.283,0.0256,0.259
MLN,0.067,0.116,0.338,0.0321,0.0964
ZNF649,0.0764,0.279,0.263,0.0269,0.19
TMEM161A,0.124,0.325,0.179,0.0265,0.163
ASCL2,0.109,0.15,0.188,0.0303,0.0696
ZBTB18,0.0927,0.107,0.224,0.0171,0.121
FGB,0.0767,0.233,0.236,0.0222,0.146
VPS52,0.0997,0.106,0.286,0.0424,0.164
ATP13A4,0.623,0.808,0.524,0.152,0.387
PFDN2,0.0612,0.171,0.284,0.0103,0.203
RING1,0.119,0.104,0.268,0.0298,0.0735
NRP1,0.145,0.0827,0.249,0.033,0.0923
TMEM140,0.124,0.199,0.463,0.032,0.0935
PICK1,0.132,0.123,0.302,0.00485,0.103
BAIAP3,0.0819,0.0995,0.421,0.00864,0.31
SNX24,0.0723,0.0943,0.247,0.0195,0.0598
NMU,0.0339,0.174,0.21,0.013,0.164
MAP2K5,0.0452,0.0922,0.227,0.00819,0.227
CNOT6,0.105,0.106,0.295,0.0156,0.244
BIRC3,0.0854,0.119,0.241,0.0326,0.119
ACTL8,0.108,0.362,0.307,0.0459,0.498
KIAA1671,0.0929,0.255,0.283,0.0433,0.228
AOPEP,0.138,0.2,0.488,-0.0019,0.409
STAB1,0.075,0.134,0.268,0.0196,0.0941
SNX8,0.0987,0.192,0.357,0.0241,0.151
RSRC2,0.105,0.0777,0.245,0.0323,0.102
GABRA5,0.0986,0.232,0.149,0.0396,0.225
FBP2,0.122,0.0787,0.161,0.0125,0.0873
UBQLN1,0.0798,0.0757,0.219,0.0165,0.0652
HTR1F,0.111,0.243,0.319,0.0183,0.0779
IFI6,0.131,0.15,0.288,0.0187,0.221

Sorted by “ALDOC mRNA, set 1” (high to low): 10 of the entries above
gene,"BNIP3L mRNA, set 1","NDRG1 mRNA, set 1","BNIP3 mRNA, set 1","ALDOC mRNA, set 1","ACSL5 mRNA, set 1"
ATP13A4,0.623,0.808,0.524,0.152,0.387
VPS52,0.0997,0.106,0.286,0.0424,0.164
MLN,0.067,0.116,0.338,0.0321,0.0964
ASCL2,0.109,0.15,0.188,0.0303,0.0696
RING1,0.119,0.104,0.268,0.0298,0.0735
ZNF649,0.0764,0.279,0.263,0.0269,0.19
TMEM161A,0.124,0.325,0.179,0.0265,0.163
FGB,0.0767,0.233,0.236,0.0222,0.146
ZBTB18,0.0927,0.107,0.224,0.0171,0.121
PFDN2,0.0612,0.171,0.284,0.0103,0.203
